Data on one molecule can be found in paper PMC8144572.

Amino acid sequences for entries named in this document (tags omitted).
UniProt P42259: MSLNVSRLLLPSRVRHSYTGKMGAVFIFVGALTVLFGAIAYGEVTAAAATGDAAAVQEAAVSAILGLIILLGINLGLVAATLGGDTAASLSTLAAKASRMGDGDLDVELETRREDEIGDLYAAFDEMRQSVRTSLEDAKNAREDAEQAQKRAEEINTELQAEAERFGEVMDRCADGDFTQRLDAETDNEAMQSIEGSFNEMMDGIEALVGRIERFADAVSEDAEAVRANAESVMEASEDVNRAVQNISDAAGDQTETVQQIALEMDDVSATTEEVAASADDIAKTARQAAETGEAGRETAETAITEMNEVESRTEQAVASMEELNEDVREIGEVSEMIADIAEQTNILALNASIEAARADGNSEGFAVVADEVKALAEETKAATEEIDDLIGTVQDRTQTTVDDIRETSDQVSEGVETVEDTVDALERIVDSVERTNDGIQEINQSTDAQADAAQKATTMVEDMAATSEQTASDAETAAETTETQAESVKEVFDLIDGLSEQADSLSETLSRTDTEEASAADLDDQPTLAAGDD

Results are given in words; binding and its absence hold for the method and conditions named. Some binding calls cover weakened binding; strength is not graded here.

The experiment deals with full-length transducer NpHtrII from Natronomonas pharaonis (Natronomonas pharaonis) (UniProt P42259). Briefly: co-purification (Ni-NTA, then SEC); NpSRII co-expressed with NpHtrII or NpHtrII137 in E. coli; pellet solubilised in 1% DDM; purified via Ni-NTA (6xHis on the transducer) and Superose 6 size-exclusion chromatography; SDS-PAGE of the purified complex.

B1: sensory rhodopsin II from Natronomonas pharaonis (NpSRII) (protein, UniProt P42196 1-239)
chain: MVGLTTLFWLGAIGMLVGTLAFAWAGRDAGSGERRYYVTLVGISGIAAVAYVVMALGVGWVPVAERTVFAPRYIDWILTTPLIVYFLGLLAGLDSREFGIVITLNTVVMLAGFAGAMVPGIERYALFGMGAVAFLGLVYYLVGPMTESASQRSSGIKSLYVRLRNLTVILWAIYPFIWLLGPPGVALLTPTVDVALIVYLDLVTKVGFGFIALDAAATLRAEHGESLAGVDTDAPAVAD
For B1, the binding entry is reported as “binds”.
